Assay results published in patent publication US6884907B2, “Hydroxamic acids and acyl hydroxamines as naaladase inhibitors” (Guilford Pharmaceuticals Inc., priority 2001, dated 2005).

Test system: rats with unilateral IOP elevation
Test: Experimental rat glaucoma (IOP elevation, optic nerve fiber counting)
Format: in vivo, Brown Norway rats (Rattus norvegicus)
Conditions: 10 mg/kg i.p. daily, glaucoma eye versus normal eye

For `O=C(O)CCC(CP(=O)(O)Cc1c(F)c(F)c(F)c(F)c1F)C(=O)O` (stereo not drawn) [Compound A, 2-[[(2,3,4,5,6-pentafluorobenzyl)hydroxyphosphinyl]methyl]pentanedioic acid], the “IOP Integral Difference” value (8 Week group) was 85 ± 37.5 mm Hg-days.
For `O=C(O)CCC(CCCS)C(=O)O` (stereo not drawn) [Compound B, 2-(3-sulfanylpropyl)pentanedioic acid], the “IOP Integral Difference” value (8 Week group) was 116 ± 33.2 mm Hg-days and the “IOP Integral Difference” value (12 Week group) was 109 ± 45.2 mm Hg-days.
